The text below walks through data of paper doi:10.1101/2021.12.01.470723.

The target in test [1] is rh NT*-Bri2 BRICHOS D148N (human) (UniProt Q9Y287). In words: SEC. For orientation: In gel filtration, larger molecules generally elute earlier.
In test [2] the target is rh NT*-Bri2 BRICHOS T206W (human) (UniProt Q9Y287). Kind of test: SEC.

These are yes or no findings as the source states them, for the method shown. Some binding calls cover weakened binding; strength is not graded here.

With “rh NT*-Bri2 BRICHOS D148N (from UniProt Q9Y287 113-231) (domain or fragment)”, the binding result in test [1] is listed as “binds”.
For the substance “rh NT*-Bri2 BRICHOS T206W (from UniProt Q9Y287 113-231) (domain or fragment)”, the binding result in test [2] is listed as “binds”.
